This is one part of the list.
Compound: CC1Cc2ccccc2N1C(=O)C1CCCN(C1)C(=O)CCl (mixture of isomers) [TRIM25 ligand 11 (diastereomer mixture)]
Experiment: probe-labelled cysteine peptide fold change vs DMSO (competition) (log2 fold change); higher = less target engagement (more negative = stronger competition)
Details: THP-1, incubation time: 4 h
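Further: competitive chemoproteomic profiling in live THP-1 cells with an iodoacetamide desthiobiotin (IA-DTB) probe, comparing probe-labelled peptide intensities in compound-treated cells against DMSO-treated controls.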

By UniProt entry, the sequences of proteins in these tests, tags left out. Where a name states a change or a piece, a line headed by the entry shows the natural chain unless it says otherwise.
UniProt Q9UIM3: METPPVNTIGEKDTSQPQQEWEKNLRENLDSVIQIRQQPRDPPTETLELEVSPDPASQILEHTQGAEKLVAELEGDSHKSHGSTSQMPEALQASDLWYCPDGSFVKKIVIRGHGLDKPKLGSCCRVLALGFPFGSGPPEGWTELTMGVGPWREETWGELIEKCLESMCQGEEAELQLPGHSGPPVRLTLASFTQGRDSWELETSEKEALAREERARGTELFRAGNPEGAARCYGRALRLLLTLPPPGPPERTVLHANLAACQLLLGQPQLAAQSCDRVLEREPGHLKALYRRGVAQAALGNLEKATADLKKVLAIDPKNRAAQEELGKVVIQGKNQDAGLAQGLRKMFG
UniProt Q9BQS8: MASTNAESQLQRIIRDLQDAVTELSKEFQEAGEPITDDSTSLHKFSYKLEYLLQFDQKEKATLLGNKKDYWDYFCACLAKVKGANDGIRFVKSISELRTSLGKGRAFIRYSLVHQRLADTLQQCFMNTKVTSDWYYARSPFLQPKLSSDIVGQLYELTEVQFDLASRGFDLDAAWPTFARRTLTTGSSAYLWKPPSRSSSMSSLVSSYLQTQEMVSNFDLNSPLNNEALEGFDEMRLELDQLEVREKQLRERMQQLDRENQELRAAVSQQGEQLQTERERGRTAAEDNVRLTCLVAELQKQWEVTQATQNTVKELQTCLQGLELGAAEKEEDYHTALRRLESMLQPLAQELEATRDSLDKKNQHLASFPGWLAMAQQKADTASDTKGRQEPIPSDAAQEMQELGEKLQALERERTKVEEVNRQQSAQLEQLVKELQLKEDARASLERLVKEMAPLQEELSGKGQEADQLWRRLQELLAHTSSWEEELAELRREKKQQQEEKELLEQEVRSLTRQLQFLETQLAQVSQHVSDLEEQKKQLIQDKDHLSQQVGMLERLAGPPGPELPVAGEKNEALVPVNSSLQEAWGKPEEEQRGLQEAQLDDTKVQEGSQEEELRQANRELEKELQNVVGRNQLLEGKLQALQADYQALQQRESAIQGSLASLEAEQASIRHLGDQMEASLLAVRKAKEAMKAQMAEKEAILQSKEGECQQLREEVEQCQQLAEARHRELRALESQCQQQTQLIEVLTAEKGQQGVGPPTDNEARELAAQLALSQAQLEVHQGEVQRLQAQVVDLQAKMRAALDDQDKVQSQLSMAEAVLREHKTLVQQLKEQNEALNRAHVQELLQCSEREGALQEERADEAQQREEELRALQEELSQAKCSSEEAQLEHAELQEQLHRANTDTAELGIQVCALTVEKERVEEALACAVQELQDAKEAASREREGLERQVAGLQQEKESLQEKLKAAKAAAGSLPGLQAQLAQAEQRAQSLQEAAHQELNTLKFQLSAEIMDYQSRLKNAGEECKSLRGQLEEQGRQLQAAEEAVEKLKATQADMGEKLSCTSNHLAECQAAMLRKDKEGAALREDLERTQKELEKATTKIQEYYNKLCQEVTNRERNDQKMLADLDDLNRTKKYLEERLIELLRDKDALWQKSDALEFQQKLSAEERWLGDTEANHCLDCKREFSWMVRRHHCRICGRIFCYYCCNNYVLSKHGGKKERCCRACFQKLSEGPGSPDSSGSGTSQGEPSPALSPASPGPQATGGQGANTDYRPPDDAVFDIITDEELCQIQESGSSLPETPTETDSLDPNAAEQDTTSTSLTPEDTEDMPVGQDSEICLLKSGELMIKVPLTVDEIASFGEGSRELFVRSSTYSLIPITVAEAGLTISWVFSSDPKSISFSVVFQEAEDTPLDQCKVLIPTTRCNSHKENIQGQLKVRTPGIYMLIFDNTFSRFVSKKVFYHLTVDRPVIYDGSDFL
UniProt Q9Y680: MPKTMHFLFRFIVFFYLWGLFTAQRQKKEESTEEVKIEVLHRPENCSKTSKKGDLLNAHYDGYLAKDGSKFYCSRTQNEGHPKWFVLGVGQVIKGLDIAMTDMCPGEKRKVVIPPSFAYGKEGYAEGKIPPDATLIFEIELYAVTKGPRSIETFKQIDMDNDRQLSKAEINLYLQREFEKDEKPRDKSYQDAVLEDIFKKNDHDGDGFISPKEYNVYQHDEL
UniProt P02751, whole entry, looked up: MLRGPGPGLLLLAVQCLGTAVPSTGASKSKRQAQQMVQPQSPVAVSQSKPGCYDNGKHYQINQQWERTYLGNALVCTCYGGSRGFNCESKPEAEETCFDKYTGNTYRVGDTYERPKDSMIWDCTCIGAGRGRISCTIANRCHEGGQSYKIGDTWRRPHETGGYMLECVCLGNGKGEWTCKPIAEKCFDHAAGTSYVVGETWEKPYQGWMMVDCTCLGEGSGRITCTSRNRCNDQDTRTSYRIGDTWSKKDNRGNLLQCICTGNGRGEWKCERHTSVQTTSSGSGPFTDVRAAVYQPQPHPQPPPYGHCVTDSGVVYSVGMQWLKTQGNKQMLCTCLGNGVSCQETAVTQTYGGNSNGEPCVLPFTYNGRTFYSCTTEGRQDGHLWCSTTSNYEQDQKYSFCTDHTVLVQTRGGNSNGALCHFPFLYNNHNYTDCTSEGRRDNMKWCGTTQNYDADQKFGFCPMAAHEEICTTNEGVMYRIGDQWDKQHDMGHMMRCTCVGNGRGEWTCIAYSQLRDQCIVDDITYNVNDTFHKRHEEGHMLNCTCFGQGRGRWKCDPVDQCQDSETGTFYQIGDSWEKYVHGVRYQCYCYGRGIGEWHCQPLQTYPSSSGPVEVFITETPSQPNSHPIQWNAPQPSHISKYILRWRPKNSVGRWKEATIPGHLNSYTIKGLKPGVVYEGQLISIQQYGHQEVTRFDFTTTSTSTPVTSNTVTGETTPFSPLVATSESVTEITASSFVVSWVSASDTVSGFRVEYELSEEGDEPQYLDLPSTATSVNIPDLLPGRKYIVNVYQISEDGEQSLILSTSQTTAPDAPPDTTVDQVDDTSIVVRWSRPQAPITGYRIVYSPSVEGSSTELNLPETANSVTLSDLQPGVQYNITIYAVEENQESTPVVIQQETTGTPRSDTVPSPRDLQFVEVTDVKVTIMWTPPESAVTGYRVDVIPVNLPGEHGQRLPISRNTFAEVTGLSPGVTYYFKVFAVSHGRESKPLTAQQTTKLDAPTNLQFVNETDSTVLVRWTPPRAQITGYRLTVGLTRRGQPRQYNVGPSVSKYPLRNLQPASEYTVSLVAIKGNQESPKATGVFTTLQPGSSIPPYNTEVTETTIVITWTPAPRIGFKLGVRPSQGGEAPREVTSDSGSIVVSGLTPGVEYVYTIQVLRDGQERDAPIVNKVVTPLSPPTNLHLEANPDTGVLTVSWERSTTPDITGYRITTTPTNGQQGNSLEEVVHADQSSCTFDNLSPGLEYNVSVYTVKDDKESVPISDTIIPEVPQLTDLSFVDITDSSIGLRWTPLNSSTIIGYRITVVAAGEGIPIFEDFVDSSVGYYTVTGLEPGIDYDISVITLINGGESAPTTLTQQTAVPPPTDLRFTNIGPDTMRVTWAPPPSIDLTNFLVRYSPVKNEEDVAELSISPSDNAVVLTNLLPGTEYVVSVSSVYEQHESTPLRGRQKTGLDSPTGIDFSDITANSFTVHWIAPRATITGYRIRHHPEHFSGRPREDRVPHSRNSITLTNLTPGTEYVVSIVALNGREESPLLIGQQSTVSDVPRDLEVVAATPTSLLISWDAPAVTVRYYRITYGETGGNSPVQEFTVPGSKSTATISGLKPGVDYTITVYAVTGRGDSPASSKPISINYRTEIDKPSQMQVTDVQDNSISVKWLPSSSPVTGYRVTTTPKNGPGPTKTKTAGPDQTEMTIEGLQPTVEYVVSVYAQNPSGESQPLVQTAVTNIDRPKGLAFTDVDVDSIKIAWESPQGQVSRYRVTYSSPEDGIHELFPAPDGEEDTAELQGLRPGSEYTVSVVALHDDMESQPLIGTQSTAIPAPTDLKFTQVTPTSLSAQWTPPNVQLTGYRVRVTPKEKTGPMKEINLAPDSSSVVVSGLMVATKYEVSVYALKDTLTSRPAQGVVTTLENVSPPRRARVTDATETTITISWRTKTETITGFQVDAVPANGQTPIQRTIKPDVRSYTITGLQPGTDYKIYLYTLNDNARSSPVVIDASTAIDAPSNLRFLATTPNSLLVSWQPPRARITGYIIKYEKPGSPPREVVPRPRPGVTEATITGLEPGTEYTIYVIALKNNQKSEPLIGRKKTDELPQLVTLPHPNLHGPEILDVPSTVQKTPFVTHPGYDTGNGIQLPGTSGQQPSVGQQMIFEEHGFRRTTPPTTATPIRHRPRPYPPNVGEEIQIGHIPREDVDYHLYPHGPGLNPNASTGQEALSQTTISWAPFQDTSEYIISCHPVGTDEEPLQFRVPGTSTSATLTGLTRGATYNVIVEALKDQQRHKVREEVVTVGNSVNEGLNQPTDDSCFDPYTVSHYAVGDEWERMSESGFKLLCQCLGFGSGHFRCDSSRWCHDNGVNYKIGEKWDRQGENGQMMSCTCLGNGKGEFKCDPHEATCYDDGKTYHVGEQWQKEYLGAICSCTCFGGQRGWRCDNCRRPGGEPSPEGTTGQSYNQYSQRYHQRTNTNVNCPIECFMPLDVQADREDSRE
UniProt Q53EP0: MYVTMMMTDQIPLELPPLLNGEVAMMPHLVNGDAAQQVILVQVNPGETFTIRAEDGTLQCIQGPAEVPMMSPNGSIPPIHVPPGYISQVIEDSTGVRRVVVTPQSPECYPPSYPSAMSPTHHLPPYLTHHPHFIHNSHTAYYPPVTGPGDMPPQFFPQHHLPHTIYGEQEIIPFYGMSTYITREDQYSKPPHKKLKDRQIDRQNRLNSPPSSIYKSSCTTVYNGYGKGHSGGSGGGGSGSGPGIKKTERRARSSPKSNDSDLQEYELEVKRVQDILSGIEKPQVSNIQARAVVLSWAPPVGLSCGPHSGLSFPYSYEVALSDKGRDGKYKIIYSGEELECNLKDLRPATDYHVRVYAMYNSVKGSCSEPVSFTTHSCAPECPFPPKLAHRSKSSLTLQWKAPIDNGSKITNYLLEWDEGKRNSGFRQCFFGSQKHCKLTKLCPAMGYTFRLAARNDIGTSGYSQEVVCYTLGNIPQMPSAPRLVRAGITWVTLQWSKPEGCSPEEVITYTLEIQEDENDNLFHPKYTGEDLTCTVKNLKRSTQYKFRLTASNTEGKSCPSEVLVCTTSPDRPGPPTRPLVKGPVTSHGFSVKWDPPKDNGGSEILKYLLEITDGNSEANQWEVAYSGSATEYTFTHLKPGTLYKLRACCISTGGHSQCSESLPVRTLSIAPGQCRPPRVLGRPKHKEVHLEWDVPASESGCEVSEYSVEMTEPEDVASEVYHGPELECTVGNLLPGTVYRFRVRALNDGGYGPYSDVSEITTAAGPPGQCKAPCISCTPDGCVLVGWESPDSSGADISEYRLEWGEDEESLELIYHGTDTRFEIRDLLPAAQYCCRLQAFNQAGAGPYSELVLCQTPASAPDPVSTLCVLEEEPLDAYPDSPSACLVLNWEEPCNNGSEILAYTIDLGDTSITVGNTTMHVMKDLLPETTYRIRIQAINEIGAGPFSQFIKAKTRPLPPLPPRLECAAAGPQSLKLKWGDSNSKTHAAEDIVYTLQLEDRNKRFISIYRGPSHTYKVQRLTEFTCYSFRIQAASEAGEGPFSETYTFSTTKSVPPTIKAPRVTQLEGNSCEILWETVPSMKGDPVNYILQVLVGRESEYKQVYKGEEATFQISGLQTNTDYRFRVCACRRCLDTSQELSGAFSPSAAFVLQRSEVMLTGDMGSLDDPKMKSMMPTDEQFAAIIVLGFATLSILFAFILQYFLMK
UniProt O14772: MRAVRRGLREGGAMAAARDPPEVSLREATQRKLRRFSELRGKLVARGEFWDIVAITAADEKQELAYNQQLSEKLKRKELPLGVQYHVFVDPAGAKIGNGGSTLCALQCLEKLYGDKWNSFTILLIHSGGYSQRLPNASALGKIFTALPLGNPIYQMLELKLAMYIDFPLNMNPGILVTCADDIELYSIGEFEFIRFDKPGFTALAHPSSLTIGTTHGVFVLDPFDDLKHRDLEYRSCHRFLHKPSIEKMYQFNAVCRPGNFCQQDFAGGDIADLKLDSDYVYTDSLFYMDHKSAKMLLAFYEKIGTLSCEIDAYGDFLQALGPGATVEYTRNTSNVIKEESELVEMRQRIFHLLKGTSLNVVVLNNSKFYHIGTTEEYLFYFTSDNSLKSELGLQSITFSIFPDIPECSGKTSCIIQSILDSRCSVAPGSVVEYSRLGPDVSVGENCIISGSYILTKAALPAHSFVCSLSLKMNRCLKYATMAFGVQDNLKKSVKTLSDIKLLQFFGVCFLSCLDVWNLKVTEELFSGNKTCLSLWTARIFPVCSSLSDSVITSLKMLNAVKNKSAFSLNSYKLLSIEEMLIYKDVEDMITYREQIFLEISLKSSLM

Target	probe-labelled cysteine peptide fold change (10 µM)	probe-labelled cysteine peptide fold change (50 µM)
FOCAD_Q5VW36_1243_LLVENSQQTSGFALALGNIVHGLSVCGHGK (UniProt Q5VW36)	0.132	-0.122
FOCAD_Q5VW36_392_QQLALNLLEMIQQECYR (UniProt Q5VW36)	-0.0279	-0.0498
GAB1_Q13480_213_STSSETDCNDNVPSHK (UniProt Q13480)	0.262	-0.000977
FKBPL_Q9UIM3_275_TVLHANLAACQLLLGQPQLAAQSCDR (UniProt Q9UIM3)	0.114	-0.0729
FLI1_Q01543_83_ESPVDCSVSK (UniProt Q01543)	-0.0642	-0.198
FRY_Q5TBA9_2009_IQACTQQGLSSK (UniProt Q5TBA9)	-0.102	-0.289
FLII_Q13045_46_TGLCYLPEELAALQK (UniProt Q13045)	0.0138	0.154
FLNB_O75369_450+455_SPFVVQVGEACNPNACR (UniProt O75369)	-0.148	-0.038
FYCO1_Q9BQS8_719_EGECQQLREEVEQCQQLAEAR (UniProt Q9BQS8)	-0.0603	-0.203
FKBP7_Q9Y680_104_GLDIAMTDMCPGEK (UniProt Q9Y680)	0.00783	-0.0524
FRG1_Q14331_205_QCEINYVK (UniProt Q14331)	-0.0875	-0.202
FLNB_O75369_769_ANEPTHFTVDCTEAGEGDVSVGIK (UniProt O75369)	0.0914	-0.146
FN1_P02751_231_CNDQDTR (UniProt P02751)	0.287	-0.0686
FIG4_Q92562_652_HLPLPYDEVICAVNLK (UniProt Q92562)	0.159	0.132
FGD4_Q96M96_234_LDLLDQVFYCK (UniProt Q96M96)	-0.0315	0.174
FNDC3B_Q53EP0_674_TLSIAPGQCRPPR (UniProt Q53EP0)	-0.00915	-0.0543
G3BP1_Q13283_73_VMSQNFTNCHTK (UniProt Q13283)	-0.0583	-0.186
FLAD1_Q8NFF5_236_LHYGTDPCTGQPFR (UniProt Q8NFF5)	0.143	0.0569
FPGT_O14772_424_CSVAPGSVVEYSR (UniProt O14772)	0.105	0.121
FLNB_O75369_2333_VHSPSGAVEECHVSELEPDK (UniProt O75369)	0.15	-0.208

5 successive records already listed, quoted:
Target	probe-labelled cysteine peptide fold change (10 µM)	probe-labelled cysteine peptide fold change (50 µM)
FYCO1_Q9BQS8_719_EGECQQLREEVEQCQQLAEAR (UniProt Q9BQS8)	-0.0603	-0.203
FKBP7_Q9Y680_104_GLDIAMTDMCPGEK (UniProt Q9Y680)	0.00783	-0.0524
FRG1_Q14331_205_QCEINYVK (UniProt Q14331)	-0.0875	-0.202
FLNB_O75369_769_ANEPTHFTVDCTEAGEGDVSVGIK (UniProt O75369)	0.0914	-0.146
FN1_P02751_231_CNDQDTR (UniProt P02751)	0.287	-0.0686
